# From the supplement of paper PMC8728848
# The list shows a part of the results.
# B1: Agalectin (Anopheles gambiae) (protein)
# chain: MSNRPFTAKFPRYPENGDEVFIRGKLKDDAKSFSVNFCLPRPAQVAEHQTPPYIALHFKTIYDERDDTSRVVLNWKNLQWQQEEVLDNYWHVDRSQTFRVVFRLHEDCIKVFVNSVDHPPDYQFPVQLPLDQIESIELWDDVEHVEEISFRYDNGNSY
# Assays:
# Experiment in all cases: glycan array binding signal (z-score within array); higher = stronger binding
# Settings in all cases: glycan notation: IUPAC condensed, linker removed
# [1] = target: Gal(a1-3)Gal(b1-4)GlcNAc(b1-2)Man
# How it was run: (§1)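 Glycan array data were curated from 3228 arrays in the Consortium for Functional Glycomics database and kept only where the protein sequence was available. Glycan names were converted to IUPAC-condensed notation, and columns mapping to the same glycan were averaged. The binding signal is a within-array Z-score, averaged across arrays of the same protein sequence at different concentrations or buffers and across linkers. Negative Z-scores can be read as non-binding.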
# [2] = target: Gal(a1-3)Gal(b1-4)GlcNAc(b1-2)Man(a1-3)[Gal(a1-3)Gal(b1-4)GlcNAc(b1-2)Man(a1-6)]Man(b1-4)GlcNAc(b1-4)GlcNAc
# How it was run: as §1
# [3] = target: Gal(a1-3)Gal(b1-4)GlcNAc(b1-3)GalNAc
# How it was run: as §1
# [4] = target: Gal(a1-3)Gal(b1-4)GlcNAc(b1-6)GalNAc
# How it was run: as §1
# [5] = target: Gal(a1-3)Gal(b1-4)[Fuc(a1-3)]GlcNAc
# How it was run: as §1
# [6] = target: Gal(a1-3)Gal(b1-4)[Fuc(a1-3)]GlcNAc(b1-2)Man(a1-3)[Gal(a1-3)Gal(b1-4)[Fuc(a1-3)]GlcNAc(b1-2)Man(a1-6)]Man(b1-4)GlcNAc(b1-4)GlcNAc
# How it was run: as §1
# Gal(a1-3)GalNAc = target: Gal(a1-3)GalNAc
# How it was run: as §1
# [7] = target: Gal(a1-3)[Gal(a1-4)]Gal(b1-4)GlcNAc
# How it was run: as §1
# [8] = target: Gal(a1-4)Gal(b1-3)GlcNAc(b1-2)Man(a1-3)[Gal(a1-4)Gal(b1-3)GlcNAc(b1-2)Man(a1-6)]Man(b1-4)GlcNAc(b1-4)GlcNAc
# How it was run: as §1
# Gal(a1-4)Gal(b1-4)Glc = target: Gal(a1-4)Gal(b1-4)Glc
# How it was run: as §1
# Gal(a1-4)Gal(b1-4)GlcNAc = target: Gal(a1-4)Gal(b1-4)GlcNAc
# How it was run: as §1
# [9] = target: Gal(a1-4)Gal(b1-4)GlcNAc(b1-2)Man(a1-3)[Gal(a1-4)Gal(b1-4)GlcNAc(b1-2)Man(a1-6)]Man(b1-4)GlcNAc(b1-4)GlcNAc
# How it was run: as §1
# [10] = target: Gal(a1-4)Gal(b1-4)GlcNAc(b1-3)Gal(b1-4)Glc
# How it was run: as §1
# Gal(a1-4)GlcNAc = target: Gal(a1-4)GlcNAc
# How it was run: as §1
# Gal(a1-6)Glc = target: Gal(a1-6)Glc
# How it was run: as §1
# Gal(b1-2)Gal = target: Gal(b1-2)Gal
# How it was run: as §1
# Gal(b1-3)Gal = target: Gal(b1-3)Gal
# How it was run: as §1
# Gal(b1-3)Gal(b1-4)GlcNAc = target: Gal(b1-3)Gal(b1-4)GlcNAc
# How it was run: as §1
# Gal(b1-3)GalNAc = target: Gal(b1-3)GalNAc
# How it was run: as §1
# [11] = target: Gal(b1-3)GalNAc(a1-3)[Fuc(a1-2)]Gal(b1-4)Glc
# How it was run: as §1
# [12] = target: Gal(b1-3)GalNAc(a1-3)[Fuc(a1-2)]Gal(b1-4)GlcNAc
# How it was run: as §1
# Gal(b1-3)GalNAc(b1-3)Gal = target: Gal(b1-3)GalNAc(b1-3)Gal
# How it was run: as §1
# [13] = target: Gal(b1-3)GalNAc(b1-3)Gal(a1-4)Gal(b1-4)Glc
# How it was run: as §1
# [14] = target: Gal(b1-3)GalNAc(b1-4)Gal(b1-4)Glc
# How it was run: as §1
# [15] = target: Gal(b1-3)GalNAc(b1-4)[Neu5Ac(a2-3)]Gal(b1-4)Glc
# How it was run: as §1
# Gal(b1-3)GlcNAc = target: Gal(b1-3)GlcNAc
# How it was run: as §1
# [16] = target: Gal(b1-3)GlcNAc(a1-3)Gal(b1-4)GlcNAc
# How it was run: as §1
# [17] = target: Gal(b1-3)GlcNAc(a1-6)Gal(b1-4)GlcNAc
# How it was run: as §1
# Gal(b1-3)GlcNAc(b1-2)Man = target: Gal(b1-3)GlcNAc(b1-2)Man
# How it was run: as §1
# [18] = target: Gal(b1-3)GlcNAc(b1-2)Man(a1-3)[Gal(b1-3)GlcNAc(b1-2)Man(a1-6)]Man(b1-4)GlcNAc(b1-4)GlcNAc
# How it was run: as §1
# [19] = target: Gal(b1-3)GlcNAc(b1-2)Man(a1-3)[Gal(b1-3)GlcNAc(b1-2)Man(a1-6)]Man(b1-4)GlcNAc(b1-4)[Fuc(a1-6)]GlcNAc
# How it was run: as §1
# [20] = target: Gal(b1-3)GlcNAc(b1-2)Man(a1-3)[GlcNAc(b1-4)][Gal(b1-3)GlcNAc(b1-2)Man(a1-6)]Man(b1-4)GlcNAc(b1-4)GlcNAc
# How it was run: as §1
# [21] = target: Gal(b1-3)GlcNAc(b1-2)[Gal(b1-3)GlcNAc(b1-6)]Man(a1-6)[Gal(b1-3)GlcNAc(b1-2)Man(a1-3)]Man(b1-4)GlcNAc(b1-4)GlcNAc
# How it was run: as §1
# [22] = target: Gal(b1-3)GlcNAc(b1-3)Gal(b1-3)GlcNAc
# How it was run: as §1
# [23] = target: Gal(b1-3)GlcNAc(b1-3)Gal(b1-4)Glc
# How it was run: as §1
# [24] = target: Gal(b1-3)GlcNAc(b1-3)Gal(b1-4)GlcNAc
# How it was run: as §1
# [25] = target: Gal(b1-3)GlcNAc(b1-3)Gal(b1-4)GlcNAc(b1-2)Man(a1-3)[Gal(b1-3)GlcNAc(b1-3)Gal(b1-4)GlcNAc(b1-2)Man(a1-6)]Man(b1-4)GlcNAc(b1-4)GlcNAc
# How it was run: as §1
# [26] = target: Gal(b1-3)GlcNAc(b1-3)Gal(b1-4)GlcNAc(b1-2)[Gal(b1-3)GlcNAc(b1-3)Gal(b1-4)GlcNAc(b1-6)]Man(a1-6)[Gal(b1-3)GlcNAc(b1-3)Gal(b1-4)GlcNAc(b1-2)Man(a1-3)]Man(b1-4)GlcNAc(b1-4)[Fuc(a1-6)]GlcNAc
# How it was run: as §1
# [27] = target: Gal(b1-3)GlcNAc(b1-3)Gal(b1-4)GlcNAc(b1-3)Gal(b1-4)GlcNAc(b1-2)[Gal(b1-3)GlcNAc(b1-3)Gal(b1-4)GlcNAc(b1-3)Gal(b1-4)GlcNAc(b1-6)]Man(a1-6)[Gal(b1-3)GlcNAc(b1-3)Gal(b1-4)GlcNAc(b1-3)Gal(b1-4)GlcNAc(b1-2)Man(a1-3)]Man(b1-4)GlcNAc(b1-4)[Fuc(a1-6)]GlcNAc
# How it was run: as §1
# [28] = target: Gal(b1-3)GlcNAc(b1-3)Gal(b1-4)GlcNAc(b1-6)[Gal(b1-3)GlcNAc(b1-3)]Gal(b1-4)Glc
# How it was run: as §1
# [29] = target: Gal(b1-3)GlcNAc(b1-3)Gal(b1-4)[Fuc(a1-3)]GlcNAc
# How it was run: as §1
# [30] = target: Gal(b1-3)GlcNAc(b1-3)Gal(b1-4)[Fuc(a1-3)]GlcNAc(b1-6)[Gal(b1-3)GlcNAc(b1-3)]Gal(b1-4)Glc
# How it was run: as §1
# [31] = target: Gal(b1-3)GlcNAc(b1-3)GalNAc
# How it was run: as §1
# [32] = target: Gal(b1-3)GlcNAc(b1-6)Gal(b1-4)GlcNAc
# How it was run: as §1
# [33] = target: Gal(b1-3)GlcNAc(b1-6)GalNAc
# How it was run: as §1
binder,measurement,setting,value
B1,glycan array binding signal (z-score),[1],-1.22
same,glycan array binding signal (z-score),[2],-0.089
same,glycan array binding signal (z-score),[3],0.984
same,glycan array binding signal (z-score),[4],-0.29
same,glycan array binding signal (z-score),[5],-0.066
same,glycan array binding signal (z-score),[6],1.57
same,glycan array binding signal (z-score),Gal(a1-3)GalNAc,-0.055
same,glycan array binding signal (z-score),[7],0.67
same,glycan array binding signal (z-score),[8],2.28
same,glycan array binding signal (z-score),Gal(a1-4)Gal(b1-4)Glc,1.32
same,glycan array binding signal (z-score),Gal(a1-4)Gal(b1-4)GlcNAc,0.962
same,glycan array binding signal (z-score),[9],1.25
same,glycan array binding signal (z-score),[10],-0.266
same,glycan array binding signal (z-score),Gal(a1-4)GlcNAc,-1
same,glycan array binding signal (z-score),Gal(a1-6)Glc,-1.62
same,glycan array binding signal (z-score),Gal(b1-2)Gal,-0.857
same,glycan array binding signal (z-score),Gal(b1-3)Gal,-0.407
same,glycan array binding signal (z-score),Gal(b1-3)Gal(b1-4)GlcNAc,-0.246
same,glycan array binding signal (z-score),Gal(b1-3)GalNAc,-0.47
same,glycan array binding signal (z-score),[11],-0.559
same,glycan array binding signal (z-score),[12],-0.342
same,glycan array binding signal (z-score),Gal(b1-3)GalNAc(b1-3)Gal,-0.485
same,glycan array binding signal (z-score),[13],0.19
same,glycan array binding signal (z-score),[14],0.548
same,glycan array binding signal (z-score),[15],-0.365
same,glycan array binding signal (z-score),Gal(b1-3)GlcNAc,-0.601
same,glycan array binding signal (z-score),[16],0.161
same,glycan array binding signal (z-score),[17],0.131
same,glycan array binding signal (z-score),Gal(b1-3)GlcNAc(b1-2)Man,0.195
same,glycan array binding signal (z-score),[18],1.66
same,glycan array binding signal (z-score),[19],1.18
same,glycan array binding signal (z-score),[20],0.353
same,glycan array binding signal (z-score),[21],0.139
same,glycan array binding signal (z-score),[22],0.735
same,glycan array binding signal (z-score),[23],-0.539
same,glycan array binding signal (z-score),[24],-0.854
same,glycan array binding signal (z-score),[25],-1.04
same,glycan array binding signal (z-score),[26],3.14
same,glycan array binding signal (z-score),[27],1.51
same,glycan array binding signal (z-score),[28],-0.383
same,glycan array binding signal (z-score),[29],1.52
same,glycan array binding signal (z-score),[30],-0.874
same,glycan array binding signal (z-score),[31],-0.394
same,glycan array binding signal (z-score),[32],0.088
same,glycan array binding signal (z-score),[33],-0.037

# In a second layout: entries from further up
binder | measurement | setting | value
B1 | glycan array binding signal (z-score) | [21] | 0.139
same | glycan array binding signal (z-score) | [22] | 0.735
